{
  "sequences": {"note": "Amino acid sequences for entries named in this document (tags omitted). A change or cut given only in a name is not applied to a line headed by its entry. Residues count along the entry.", "UniProt P08174, residues 35-353": "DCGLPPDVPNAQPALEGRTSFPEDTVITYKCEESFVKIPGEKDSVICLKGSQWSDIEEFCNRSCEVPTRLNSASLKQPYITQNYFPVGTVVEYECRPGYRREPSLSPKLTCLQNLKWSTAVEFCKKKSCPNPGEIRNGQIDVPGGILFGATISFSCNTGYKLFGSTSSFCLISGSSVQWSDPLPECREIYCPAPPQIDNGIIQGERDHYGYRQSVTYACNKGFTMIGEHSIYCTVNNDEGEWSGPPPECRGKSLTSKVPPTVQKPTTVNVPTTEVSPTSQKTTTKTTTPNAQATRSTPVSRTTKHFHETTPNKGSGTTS", "UniProt P23229": "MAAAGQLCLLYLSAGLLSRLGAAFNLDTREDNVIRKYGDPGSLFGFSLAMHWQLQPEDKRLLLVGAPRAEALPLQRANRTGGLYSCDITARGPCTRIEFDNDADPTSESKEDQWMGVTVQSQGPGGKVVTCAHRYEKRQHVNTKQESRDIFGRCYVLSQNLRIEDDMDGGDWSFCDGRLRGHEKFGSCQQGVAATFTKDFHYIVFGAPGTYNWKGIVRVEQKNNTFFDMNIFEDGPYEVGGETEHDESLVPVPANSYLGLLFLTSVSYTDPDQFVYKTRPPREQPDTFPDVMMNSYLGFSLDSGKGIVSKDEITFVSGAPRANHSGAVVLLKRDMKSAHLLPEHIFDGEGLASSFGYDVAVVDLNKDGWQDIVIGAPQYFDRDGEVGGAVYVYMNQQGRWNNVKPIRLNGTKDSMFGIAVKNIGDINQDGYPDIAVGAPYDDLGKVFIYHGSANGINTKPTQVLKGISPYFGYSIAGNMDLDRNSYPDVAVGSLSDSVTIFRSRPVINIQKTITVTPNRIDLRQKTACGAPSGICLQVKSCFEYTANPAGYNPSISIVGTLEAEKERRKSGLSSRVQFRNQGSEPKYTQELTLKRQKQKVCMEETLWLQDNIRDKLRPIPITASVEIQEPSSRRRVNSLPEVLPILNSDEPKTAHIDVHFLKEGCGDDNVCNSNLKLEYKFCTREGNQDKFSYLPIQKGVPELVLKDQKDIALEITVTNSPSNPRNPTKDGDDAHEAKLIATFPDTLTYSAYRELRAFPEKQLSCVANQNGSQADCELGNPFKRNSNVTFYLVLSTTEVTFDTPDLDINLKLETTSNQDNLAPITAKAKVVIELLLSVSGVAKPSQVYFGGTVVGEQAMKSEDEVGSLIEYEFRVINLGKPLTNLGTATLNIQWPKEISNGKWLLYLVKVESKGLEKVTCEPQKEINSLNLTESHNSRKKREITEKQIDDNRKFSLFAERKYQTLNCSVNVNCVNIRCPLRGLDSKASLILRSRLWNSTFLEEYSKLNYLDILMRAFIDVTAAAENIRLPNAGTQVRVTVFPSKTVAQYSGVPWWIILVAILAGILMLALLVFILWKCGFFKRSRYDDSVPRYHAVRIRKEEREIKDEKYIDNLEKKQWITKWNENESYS", "UniProt P16144": "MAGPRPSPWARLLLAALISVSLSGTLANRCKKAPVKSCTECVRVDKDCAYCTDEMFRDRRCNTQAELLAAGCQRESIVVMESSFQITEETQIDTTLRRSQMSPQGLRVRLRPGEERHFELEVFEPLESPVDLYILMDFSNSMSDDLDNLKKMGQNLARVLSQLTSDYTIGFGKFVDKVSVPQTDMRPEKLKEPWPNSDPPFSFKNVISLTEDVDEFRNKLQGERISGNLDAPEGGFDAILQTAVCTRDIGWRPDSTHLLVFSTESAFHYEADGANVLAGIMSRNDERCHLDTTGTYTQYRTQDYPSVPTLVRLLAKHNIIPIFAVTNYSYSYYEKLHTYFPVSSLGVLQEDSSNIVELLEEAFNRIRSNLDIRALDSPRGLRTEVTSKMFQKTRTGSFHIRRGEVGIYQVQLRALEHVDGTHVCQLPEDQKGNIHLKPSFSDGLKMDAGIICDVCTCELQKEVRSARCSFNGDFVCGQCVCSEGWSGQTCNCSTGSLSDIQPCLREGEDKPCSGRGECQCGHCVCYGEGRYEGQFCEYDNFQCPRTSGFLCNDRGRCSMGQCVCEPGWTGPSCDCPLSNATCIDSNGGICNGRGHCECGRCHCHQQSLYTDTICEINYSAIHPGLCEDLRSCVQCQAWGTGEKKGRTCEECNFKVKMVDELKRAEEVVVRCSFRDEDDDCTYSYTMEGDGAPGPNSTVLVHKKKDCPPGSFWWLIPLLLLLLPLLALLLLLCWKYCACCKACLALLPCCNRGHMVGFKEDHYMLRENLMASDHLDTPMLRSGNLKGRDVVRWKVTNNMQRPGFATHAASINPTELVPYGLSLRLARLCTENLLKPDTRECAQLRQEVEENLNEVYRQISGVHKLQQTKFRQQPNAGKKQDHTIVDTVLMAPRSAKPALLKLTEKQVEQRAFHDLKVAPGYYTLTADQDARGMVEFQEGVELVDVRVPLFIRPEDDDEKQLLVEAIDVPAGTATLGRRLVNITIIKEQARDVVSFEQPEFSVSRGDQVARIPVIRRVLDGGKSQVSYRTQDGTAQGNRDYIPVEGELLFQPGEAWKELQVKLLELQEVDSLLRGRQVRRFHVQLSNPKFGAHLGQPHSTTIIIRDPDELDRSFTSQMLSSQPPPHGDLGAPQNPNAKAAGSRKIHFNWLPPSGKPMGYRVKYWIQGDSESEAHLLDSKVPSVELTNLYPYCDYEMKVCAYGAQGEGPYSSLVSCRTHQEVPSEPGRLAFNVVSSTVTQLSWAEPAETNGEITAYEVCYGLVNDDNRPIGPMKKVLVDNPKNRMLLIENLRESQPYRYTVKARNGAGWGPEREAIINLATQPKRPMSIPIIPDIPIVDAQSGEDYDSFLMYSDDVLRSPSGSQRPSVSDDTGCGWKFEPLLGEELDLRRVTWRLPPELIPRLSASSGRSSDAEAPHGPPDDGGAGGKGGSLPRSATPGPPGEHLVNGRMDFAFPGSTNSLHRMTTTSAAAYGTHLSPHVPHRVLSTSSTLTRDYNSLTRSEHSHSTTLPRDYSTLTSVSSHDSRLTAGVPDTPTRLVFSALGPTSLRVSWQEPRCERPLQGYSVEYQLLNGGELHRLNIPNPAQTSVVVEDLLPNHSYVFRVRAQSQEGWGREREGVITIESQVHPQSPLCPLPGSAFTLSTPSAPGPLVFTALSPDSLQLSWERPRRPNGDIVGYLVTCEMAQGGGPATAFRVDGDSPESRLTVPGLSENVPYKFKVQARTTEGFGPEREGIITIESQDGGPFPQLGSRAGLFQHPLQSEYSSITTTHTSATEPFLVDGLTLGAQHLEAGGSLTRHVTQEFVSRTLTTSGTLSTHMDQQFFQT"},
  "source": "patent US20080008719A1",
  "about": "(Alexion, published 2008)",
  "key": {"CD55 (human)": {"biological_target": "CD55 (human) (UniProt P08174)", "test": "Western blot antigen signature; IP/MS"}, "[1]": {"biological_target": "Integrin alpha6/beta4 (human) (UniProt P23229+P16144)", "test": "IP/MS"}},
  "note": "These are yes or no findings as the source states them, for the method shown. Some entries that bind do so weakly or less than the wild type.",
  "data": [
    {"binder": "Fab L52 (Fab, V domains shown) VH: EVQLQQSGAELARPGASVKMSCKASGNTFNTIHWIKQRPGQGLEWIGYINPSNGLTKNNQKFKDKATLTADKSSSTAYMQLSSLTSEDSAVYSCALGYFYAMDYWGQGTSVTVSS VL: DIVLTQSPASLSVSLGQRATISCKASQSVDNDGISYMNWYQQKPGQPPKLLIYAASNLGSGVPARFSGSGSGTDFSLNIHPVEEEDAATYFCQQYNGYPYTFGGGTKLEIKR", "values": [
      {"measurement": "binding", "setting": "CD55 (human)", "result": "binds"}
    ]},
    {"binder": "Fab 65A12 (Fab, V domains shown) VH: EVQLQQSGPELVKPGASVKISCKTSGYTFTEYTMHWVKQSHGKSLEWIGGINPNNGGTNYNQKFKGKATLTVDKSSSTAYMELRSLTSEDSAVYYCARWTGDFDVWGAGTTVTVSS VL: DIVMTQSQKFMSTSVGDRVSVTCKASQNVGTNVAWYQQKPGQSPDALIYSASYRYSGVPDRFTGSGSGTDFTLTITNVQSEDLADYFCQQYNSYPLTFGSGTKLDLKR", "values": [
      {"measurement": "binding", "setting": "[1]", "result": "binds"}
    ]}
  ]
}
